Measured values reported in the supplement of paper PMC6411743.
± gives the standard deviation of the averaged measurements. Only a part is listed here, and it is no random draw.

By UniProt entry, the sequences of proteins in these tests, tags left out. Where a name states a change or a piece, a line headed by the entry shows the natural chain unless it says otherwise.
UniProt Q8TD30: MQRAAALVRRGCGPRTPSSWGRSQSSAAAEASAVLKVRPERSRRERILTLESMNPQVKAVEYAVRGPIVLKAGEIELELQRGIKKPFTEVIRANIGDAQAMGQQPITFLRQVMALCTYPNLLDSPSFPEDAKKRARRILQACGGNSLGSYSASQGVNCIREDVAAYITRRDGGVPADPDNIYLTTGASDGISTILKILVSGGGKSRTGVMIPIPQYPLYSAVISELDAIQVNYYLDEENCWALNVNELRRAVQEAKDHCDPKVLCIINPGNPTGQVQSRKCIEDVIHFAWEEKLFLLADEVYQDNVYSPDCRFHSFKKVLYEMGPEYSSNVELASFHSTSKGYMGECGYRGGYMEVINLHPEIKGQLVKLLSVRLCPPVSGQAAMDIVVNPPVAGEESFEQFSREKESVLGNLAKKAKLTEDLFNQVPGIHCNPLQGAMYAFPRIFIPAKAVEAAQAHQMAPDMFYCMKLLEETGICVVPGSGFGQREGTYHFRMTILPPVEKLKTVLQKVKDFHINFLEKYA
UniProt Q8WVE0: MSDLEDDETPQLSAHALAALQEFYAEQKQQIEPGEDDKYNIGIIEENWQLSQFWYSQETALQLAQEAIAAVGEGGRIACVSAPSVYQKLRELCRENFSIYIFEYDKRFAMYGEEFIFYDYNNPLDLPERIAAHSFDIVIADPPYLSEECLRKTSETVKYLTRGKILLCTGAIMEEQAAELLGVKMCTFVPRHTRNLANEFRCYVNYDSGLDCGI
UniProt Q8TEA7: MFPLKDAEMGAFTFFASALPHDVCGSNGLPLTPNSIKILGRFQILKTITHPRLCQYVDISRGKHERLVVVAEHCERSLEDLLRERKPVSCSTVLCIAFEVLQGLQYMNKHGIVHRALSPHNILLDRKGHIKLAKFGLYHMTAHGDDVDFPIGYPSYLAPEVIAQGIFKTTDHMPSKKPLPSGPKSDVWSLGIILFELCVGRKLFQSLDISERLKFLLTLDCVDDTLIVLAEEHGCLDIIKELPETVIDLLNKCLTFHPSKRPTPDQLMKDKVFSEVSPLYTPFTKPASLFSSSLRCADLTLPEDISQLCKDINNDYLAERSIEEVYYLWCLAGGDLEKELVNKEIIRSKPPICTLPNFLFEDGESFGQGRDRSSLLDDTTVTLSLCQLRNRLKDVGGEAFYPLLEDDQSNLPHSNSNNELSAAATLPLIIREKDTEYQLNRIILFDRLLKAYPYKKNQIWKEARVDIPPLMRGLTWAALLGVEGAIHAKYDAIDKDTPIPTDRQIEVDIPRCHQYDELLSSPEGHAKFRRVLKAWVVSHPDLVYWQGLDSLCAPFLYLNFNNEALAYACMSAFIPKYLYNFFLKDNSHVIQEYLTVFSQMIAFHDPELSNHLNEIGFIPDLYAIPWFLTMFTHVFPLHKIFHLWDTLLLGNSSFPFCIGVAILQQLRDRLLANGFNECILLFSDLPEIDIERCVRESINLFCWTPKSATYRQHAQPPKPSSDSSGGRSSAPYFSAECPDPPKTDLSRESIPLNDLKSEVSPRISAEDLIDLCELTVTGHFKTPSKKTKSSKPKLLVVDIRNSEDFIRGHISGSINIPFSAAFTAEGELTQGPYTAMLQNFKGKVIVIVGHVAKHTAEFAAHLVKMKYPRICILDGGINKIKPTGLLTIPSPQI
UniProt Q8TEL6: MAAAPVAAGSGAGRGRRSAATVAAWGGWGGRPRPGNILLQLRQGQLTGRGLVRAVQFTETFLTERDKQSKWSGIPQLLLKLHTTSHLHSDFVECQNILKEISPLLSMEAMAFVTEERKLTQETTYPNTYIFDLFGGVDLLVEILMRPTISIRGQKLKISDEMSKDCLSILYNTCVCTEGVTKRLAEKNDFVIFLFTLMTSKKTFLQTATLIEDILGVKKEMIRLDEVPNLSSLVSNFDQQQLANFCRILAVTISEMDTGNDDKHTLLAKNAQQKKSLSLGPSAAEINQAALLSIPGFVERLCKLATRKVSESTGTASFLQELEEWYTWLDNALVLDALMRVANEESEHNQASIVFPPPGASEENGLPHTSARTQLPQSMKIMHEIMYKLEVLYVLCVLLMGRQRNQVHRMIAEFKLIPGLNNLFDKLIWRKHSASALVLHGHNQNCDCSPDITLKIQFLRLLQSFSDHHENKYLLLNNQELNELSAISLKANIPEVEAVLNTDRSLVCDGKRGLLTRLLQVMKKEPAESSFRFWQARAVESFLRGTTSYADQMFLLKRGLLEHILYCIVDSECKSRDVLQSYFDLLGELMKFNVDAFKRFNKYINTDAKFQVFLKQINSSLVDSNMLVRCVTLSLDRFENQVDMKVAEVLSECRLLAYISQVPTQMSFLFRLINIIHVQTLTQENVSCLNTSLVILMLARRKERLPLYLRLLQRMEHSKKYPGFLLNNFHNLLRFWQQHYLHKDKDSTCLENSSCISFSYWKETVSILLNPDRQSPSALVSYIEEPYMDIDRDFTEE
UniProt Q96B97, whole entry: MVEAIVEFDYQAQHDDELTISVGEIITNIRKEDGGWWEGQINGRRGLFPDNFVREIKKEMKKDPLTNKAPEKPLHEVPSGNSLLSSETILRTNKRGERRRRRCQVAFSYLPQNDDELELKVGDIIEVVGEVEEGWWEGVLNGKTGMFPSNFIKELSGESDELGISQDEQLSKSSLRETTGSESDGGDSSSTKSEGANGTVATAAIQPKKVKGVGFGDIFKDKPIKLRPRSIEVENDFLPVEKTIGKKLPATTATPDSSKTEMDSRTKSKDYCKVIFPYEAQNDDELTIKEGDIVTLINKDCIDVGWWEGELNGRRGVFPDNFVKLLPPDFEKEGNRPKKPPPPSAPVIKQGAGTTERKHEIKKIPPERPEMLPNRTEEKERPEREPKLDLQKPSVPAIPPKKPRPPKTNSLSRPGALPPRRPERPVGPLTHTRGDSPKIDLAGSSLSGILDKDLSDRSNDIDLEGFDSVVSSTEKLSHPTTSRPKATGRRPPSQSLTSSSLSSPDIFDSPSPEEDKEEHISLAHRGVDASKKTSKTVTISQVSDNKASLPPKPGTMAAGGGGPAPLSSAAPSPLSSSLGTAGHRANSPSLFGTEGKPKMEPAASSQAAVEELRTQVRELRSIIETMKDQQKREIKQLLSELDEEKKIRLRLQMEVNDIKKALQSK
UniProt Q96AT1: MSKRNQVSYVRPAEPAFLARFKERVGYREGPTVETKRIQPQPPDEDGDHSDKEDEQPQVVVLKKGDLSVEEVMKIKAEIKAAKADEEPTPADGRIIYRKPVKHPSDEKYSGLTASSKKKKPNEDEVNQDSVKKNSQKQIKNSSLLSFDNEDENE
UniProt Q8WUF8: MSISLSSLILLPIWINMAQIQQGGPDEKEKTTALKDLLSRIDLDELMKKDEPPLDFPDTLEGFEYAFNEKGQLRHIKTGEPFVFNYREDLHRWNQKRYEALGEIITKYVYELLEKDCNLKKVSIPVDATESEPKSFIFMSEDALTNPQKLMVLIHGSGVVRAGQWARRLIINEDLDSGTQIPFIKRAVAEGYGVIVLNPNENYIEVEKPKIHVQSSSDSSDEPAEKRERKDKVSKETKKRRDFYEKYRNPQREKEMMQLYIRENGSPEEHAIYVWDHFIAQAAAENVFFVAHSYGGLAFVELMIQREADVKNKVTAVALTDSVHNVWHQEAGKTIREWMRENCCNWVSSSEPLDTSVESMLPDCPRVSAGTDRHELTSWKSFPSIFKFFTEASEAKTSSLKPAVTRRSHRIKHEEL
UniProt Q8WUM0: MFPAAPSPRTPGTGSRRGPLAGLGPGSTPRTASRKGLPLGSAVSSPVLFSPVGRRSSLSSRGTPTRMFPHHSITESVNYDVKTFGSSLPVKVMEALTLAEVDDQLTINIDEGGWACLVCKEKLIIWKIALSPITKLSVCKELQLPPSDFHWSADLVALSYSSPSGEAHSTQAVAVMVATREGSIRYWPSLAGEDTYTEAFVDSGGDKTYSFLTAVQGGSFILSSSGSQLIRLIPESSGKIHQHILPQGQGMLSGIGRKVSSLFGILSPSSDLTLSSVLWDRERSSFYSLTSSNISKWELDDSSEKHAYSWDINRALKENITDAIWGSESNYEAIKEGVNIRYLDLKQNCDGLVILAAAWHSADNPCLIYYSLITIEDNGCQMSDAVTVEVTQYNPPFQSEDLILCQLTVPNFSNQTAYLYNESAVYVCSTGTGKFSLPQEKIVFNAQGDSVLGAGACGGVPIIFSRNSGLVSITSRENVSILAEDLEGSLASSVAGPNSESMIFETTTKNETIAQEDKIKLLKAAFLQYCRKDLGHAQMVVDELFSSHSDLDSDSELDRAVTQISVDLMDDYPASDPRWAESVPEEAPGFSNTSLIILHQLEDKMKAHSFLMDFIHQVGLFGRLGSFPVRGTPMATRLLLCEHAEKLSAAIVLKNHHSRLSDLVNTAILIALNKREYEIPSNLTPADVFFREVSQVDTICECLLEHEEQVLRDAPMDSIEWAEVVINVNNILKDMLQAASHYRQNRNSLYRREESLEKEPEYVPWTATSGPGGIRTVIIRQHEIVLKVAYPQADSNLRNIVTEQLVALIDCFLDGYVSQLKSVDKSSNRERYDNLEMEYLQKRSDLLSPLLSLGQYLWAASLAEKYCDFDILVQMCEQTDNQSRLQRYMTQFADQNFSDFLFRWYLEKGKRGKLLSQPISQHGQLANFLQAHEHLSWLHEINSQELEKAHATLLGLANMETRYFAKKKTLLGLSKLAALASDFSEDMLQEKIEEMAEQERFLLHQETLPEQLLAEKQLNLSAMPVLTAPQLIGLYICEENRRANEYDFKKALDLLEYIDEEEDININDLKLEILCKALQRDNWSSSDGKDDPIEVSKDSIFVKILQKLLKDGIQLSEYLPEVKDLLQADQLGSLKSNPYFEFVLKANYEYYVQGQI
UniProt Q92890: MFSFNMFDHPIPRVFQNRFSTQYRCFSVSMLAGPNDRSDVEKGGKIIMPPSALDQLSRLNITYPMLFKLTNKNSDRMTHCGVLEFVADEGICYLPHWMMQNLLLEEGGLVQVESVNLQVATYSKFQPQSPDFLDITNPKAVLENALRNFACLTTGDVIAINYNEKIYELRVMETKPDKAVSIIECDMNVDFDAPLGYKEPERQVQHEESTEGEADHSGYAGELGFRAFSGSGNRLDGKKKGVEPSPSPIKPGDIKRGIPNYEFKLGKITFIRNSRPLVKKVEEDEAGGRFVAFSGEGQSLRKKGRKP
UniProt Q8TE82: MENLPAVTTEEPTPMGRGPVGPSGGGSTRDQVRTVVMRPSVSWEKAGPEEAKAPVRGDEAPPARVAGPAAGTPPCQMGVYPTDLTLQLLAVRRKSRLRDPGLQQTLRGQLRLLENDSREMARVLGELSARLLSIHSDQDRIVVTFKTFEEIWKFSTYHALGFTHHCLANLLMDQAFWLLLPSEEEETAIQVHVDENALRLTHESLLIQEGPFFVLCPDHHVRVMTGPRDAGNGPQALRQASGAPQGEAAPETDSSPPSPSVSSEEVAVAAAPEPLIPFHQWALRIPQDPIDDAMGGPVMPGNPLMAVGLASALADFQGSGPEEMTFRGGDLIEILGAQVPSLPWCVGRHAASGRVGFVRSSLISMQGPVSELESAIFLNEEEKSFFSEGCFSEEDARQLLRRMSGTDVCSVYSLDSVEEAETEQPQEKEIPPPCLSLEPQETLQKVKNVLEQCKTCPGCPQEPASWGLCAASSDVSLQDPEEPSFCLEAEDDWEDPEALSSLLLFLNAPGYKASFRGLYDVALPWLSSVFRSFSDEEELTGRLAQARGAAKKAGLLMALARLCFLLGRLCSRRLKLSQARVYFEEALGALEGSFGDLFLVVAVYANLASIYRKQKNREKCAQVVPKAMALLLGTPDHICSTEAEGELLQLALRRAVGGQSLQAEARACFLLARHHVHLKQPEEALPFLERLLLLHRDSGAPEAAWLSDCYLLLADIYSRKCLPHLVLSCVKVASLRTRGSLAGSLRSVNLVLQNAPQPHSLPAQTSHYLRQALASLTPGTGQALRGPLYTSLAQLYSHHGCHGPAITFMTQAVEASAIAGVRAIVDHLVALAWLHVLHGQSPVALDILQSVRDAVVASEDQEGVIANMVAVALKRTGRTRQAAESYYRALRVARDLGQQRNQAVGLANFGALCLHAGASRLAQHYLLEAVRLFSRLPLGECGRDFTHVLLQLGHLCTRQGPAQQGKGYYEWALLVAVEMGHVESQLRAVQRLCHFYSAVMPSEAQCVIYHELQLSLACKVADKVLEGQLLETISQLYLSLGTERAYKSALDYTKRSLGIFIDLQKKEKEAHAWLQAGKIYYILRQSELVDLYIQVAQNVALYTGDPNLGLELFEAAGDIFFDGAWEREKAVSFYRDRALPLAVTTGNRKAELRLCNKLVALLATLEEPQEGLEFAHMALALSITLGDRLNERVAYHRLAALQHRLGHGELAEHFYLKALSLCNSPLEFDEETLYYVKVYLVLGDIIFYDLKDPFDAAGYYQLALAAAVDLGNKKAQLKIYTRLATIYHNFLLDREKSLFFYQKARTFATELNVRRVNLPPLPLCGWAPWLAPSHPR

Compound: Nc1ncnc2c1ncn2[C@@H]1O[C@H](COP(=O)(O)OP(=O)(O)OP(=O)(O)O)[C@@H](O)[C@H]1O [adenosine triphosphate]
Experiment: NP40-soluble protein abundance relative to vehicle (solubility fold change) (ratio); higher = more soluble protein in presence of ATP
How it was run: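 Jurkat crude lysate prepared with a Dounce homogeniser was treated at eight concentrations spanning 0.1 to 10 mM, 10 min at room temperature then 3 min at 37 °C. Solubilisation with 0.8% NP40 and benzonase and ultracentrifugation preceded TMT labelling of the supernatant for LC-MS/MS. Fold change against the detergent-processed vehicle was determined per replicate from vsn-normalised intensities, across three independent experiments.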

Target	NP40-soluble protein abundance (concentration: 1mM)	NP40-soluble protein abundance (concentration: 2mM)	NP40-soluble protein abundance (concentration: 4mM)	NP40-soluble protein abundance (concentration: 6mM)	NP40-soluble protein abundance (concentration: 8mM)	NP40-soluble protein abundance (concentration: 10mM)
LEO1 (UniProt Q8WVC0)	0.992 ± 0.056	0.979 ± 0.029	0.935 ± 0.027	0.854 ± 0.019	0.674 ± 0.062	0.563 ± 0.043
UniProt Q92796-2|Q92796-3	1.05 ± 0.034	1.03 ± 0.044	0.995 ± 0.03	0.992 ± 0.046	0.998 ± 0.063	0.975 ± 0.022
GATAD2B (UniProt Q8WXI9)	1.01 ± 0.072	0.997 ± 0.073	1.02 ± 0.081	1.02 ± 0.13	1.02 ± 0.07	1.02 ± 0.076
PDCD6IP (UniProt Q8WUM4)	0.97 ± 0.031	0.9619 ± 0.0094	0.921 ± 0.016	0.972 ± 0.029	0.924 ± 0.013	0.934 ± 0.028
L3MBTL2 (UniProt Q969R5)	1.07 ± 0.068	1.05 ± 0.054	1.1 ± 0.065	1.02 ± 0.021	1.11 ± 0.048	1.15 ± 0.057
UniProt Q8TCC3 and related entries	0.982 ± 0.099	0.89 ± 0.2	0.867 ± 0.19	0.862 ± 0.29	0.855 ± 0.23	0.823 ± 0.21
UniProt Q96AG3 and related entries	0.99 ± 0.18	0.971 ± 0.12	0.956 ± 0.083	0.929 ± 0.029	0.901 ± 0.053	0.958 ± 0.085
UniProt Q92989 and related entries	1.06 ± 0.15	1.08 ± 0.13	1.08 ± 0.094	0.97 ± 0.13	1.1 ± 0.056	1.15 ± 0.13
UniProt Q8WUY1	1 ± 0.05	1.01 ± 0.041	1.02 ± 0.032	0.963 ± 0.062	1.04 ± 0.04	1.06 ± 0.036
ZNF516 (UniProt Q92618)	1.04 ± 0.051	1.07 ± 0.069	0.996 ± 0.1	1.1 ± 0.046	1.04 ± 0.18	1.07 ± 0.034
UniProt Q93008 and related entries	1.03 ± 0.061	1.01 ± 0.041	1.02 ± 0.021	0.929 ± 0.067	1.05 ± 0.023	1.02 ± 0.033
TGFBRAP1 (UniProt Q8WUH2)	1.03 ± 0.091	0.971 ± 0.048	0.982 ± 0.025	0.916 ± 0.051	0.997 ± 0.029	0.981 ± 0.042
SMARCC1 (UniProt Q92922)	1.03 ± 0.079	1 ± 0.071	1 ± 0.078	1.08 ± 0.14	1.02 ± 0.077	1.02 ± 0.058
SETD7 (UniProt Q8WTS6)	0.989 ± 0.011	0.9963 ± 0.0082	0.946 ± 0.033	0.952 ± 0.011	0.925 ± 0.034	0.945 ± 0.035
GTF3C2 (UniProt Q8WUA4)	1.05 ± 0.017	1.04 ± 0.078	1.05 ± 0.04	1.03 ± 0.084	1.06 ± 0.044	1.07 ± 0.14
UniProt Q8TEP8-3	0.955 ± 0.1	0.994 ± 0.074	1 ± 0.029	0.999 ± 0.086	0.985 ± 0.044	0.987 ± 0.05
UniProt Q92609 and related entries	0.986 ± 0.03	0.976 ± 0.016	0.974 ± 0.021	1.01 ± 0.011	0.97 ± 0.019	0.975 ± 0.028
PHIP (UniProt Q8WWQ0)	1.12 ± 0.056	1.19 ± 0.043	1.16 ± 0.018	1.22 ± 0.12	1.14 ± 0.09	1.24 ± 0.063
USP13 (UniProt Q92995)	0.987 ± 0.071	0.979 ± 0.039	0.961 ± 0.047	0.949 ± 0.064	0.976 ± 0.049	0.97 ± 0.025
GPT2 (UniProt Q8TD30)	1.02 ± 0.072	1.02 ± 0.017	0.949 ± 0.051	0.951 ± 0.11	0.929 ± 0.042	0.97 ± 0.032
UniProt Q96AQ8	0.987 ± 0.0055	0.96 ± 0.021	0.979 ± 0.036	0.977 ± 0.019	0.994 ± 0.043	0.929 ± 0.11
UniProt Q8WVE0	0.965 ± 0.048	0.986 ± 0.074	0.981 ± 0.02	1.02 ± 0.093	1.03 ± 0.15	0.944 ± 0.029
NDRG1 (UniProt Q92597)	0.934 ± 0.027	0.947 ± 0.032	0.924 ± 0.082	0.999 ± 0.086	0.93 ± 0.063	0.943 ± 0.095
UniProt Q8TEA7 and related entries	0.976 ± 0.1	0.945 ± 0.032	0.874 ± 0.055	0.801 ± 0.11	0.912 ± 0.015	0.891 ± 0.06

Target	NP40-soluble protein abundance (concentration: 1mM)	NP40-soluble protein abundance (concentration: 2mM)	NP40-soluble protein abundance (concentration: 4mM)	NP40-soluble protein abundance (concentration: 6mM)	NP40-soluble protein abundance (concentration: 8mM)	NP40-soluble protein abundance (concentration: 10mM)
UBA3 (UniProt Q8TBC4)	0.996 ± 0.11	1 ± 0.089	1 ± 0.094	0.965 ± 0.099	0.986 ± 0.091	0.994 ± 0.079
UniProt Q8TEL6 and related entries	1.06 ± 0.15	1.15 ± 0.2	0.976 ± 0.22	1.02 ± 0.21	0.905 ± 0.061	1.02 ± 0.14
UniProt Q96B97 and related entries	0.96 ± 0.037	0.959 ± 0.033	0.948 ± 0.022	0.979 ± 0.041	0.936 ± 0.018	0.935 ± 0.011
KIAA1143 (UniProt Q96AT1)	0.831 ± 0.1	0.903 ± 0.13	0.836 ± 0.12	0.923 ± 0.12	0.808 ± 0.083	0.822 ± 0.12
FAM172A (UniProt Q8WUF8)	1.04 ± 0.055	1.05 ± 0.037	1.06 ± 0.073	1.07 ± 0.022	1.03 ± 0.05	1.08 ± 0.045
UniProt Q92851-4	1.05 ± 0.056	1.06 ± 0.14	0.997 ± 0.1	1 ± 0.055	0.948 ± 0.075	0.982 ± 0.056
DTD1 (UniProt Q8TEA8)	0.958 ± 0.11	0.924 ± 0.081	0.913 ± 0.014	0.877 ± 0.092	0.903 ± 0.045	0.935 ± 0.017
RAB24 (UniProt Q969Q5)	1.03 ± 0.051	1.02 ± 0.063	1 ± 0.055	1.02 ± 0.11	1.01 ± 0.041	0.994 ± 0.056
BRI3BP (UniProt Q8WY22)	0.959 ± 0.14	1.01 ± 0.12	1.05 ± 0.11	1.01 ± 0.12	0.975 ± 0.082	1.02 ± 0.14
UniProt Q8TF05 and related entries	1.02 ± 0.038	0.983 ± 0.019	0.94 ± 0.036	0.948 ± 0.087	0.935 ± 0.033	0.899 ± 0.046
TFB1M (UniProt Q8WVM0)	1.04 ± 0.13	1.06 ± 0.083	1.09 ± 0.031	1.11 ± 0.074	1.19 ± 0.051	1.28 ± 0.045
UniProt Q8WUQ7 and related entries	0.9496 ± 0.0053	0.98 ± 0.016	1.05 ± 0.012	1.11 ± 0.0066	1.14 ± 0.054	1.22 ± 0.061
UniProt Q8TCF1 and related entries	0.939 ± 0.072	0.959 ± 0.057	0.943 ± 0.041	0.96 ± 0.016	0.893 ± 0.048	0.907 ± 0.06
HDAC2 (UniProt Q92769)	1.03 ± 0.014	1.01 ± 0.026	0.984 ± 0.014	0.985 ± 0.082	1.04 ± 0.056	1.04 ± 0.072
NUP133 (UniProt Q8WUM0)	1.12 ± 0.061	1.09 ± 0.048	1.09 ± 0.056	1.08 ± 0.03	1.14 ± 0.029	1.15 ± 0.055
UniProt Q93100 and related entries	1 ± 0.048	0.941 ± 0.039	0.939 ± 0.019	0.902 ± 0.089	0.957 ± 0.048	0.899 ± 0.084
TRUB1 (UniProt Q8WWH5)	1 ± 0.099	0.969 ± 0.03	1.02 ± 0.1	0.969 ± 0.051	0.992 ± 0.096	0.959 ± 0.04
UniProt Q92997 and related entries	0.968 ± 0.05	1.07 ± 0.084	1.06 ± 0.17	0.98 ± 0.053	1.03 ± 0.012	1.04 ± 0.035
UniProt Q92890 and related entries	0.962 ± 0.022	0.95 ± 0.015	0.913 ± 0.019	0.934 ± 0.029	0.943 ± 0.036	0.921 ± 0.027
BCL7C (UniProt Q8WUZ0)	0.991 ± 0.054	0.977 ± 0.065	0.996 ± 0.075	0.978 ± 0.17	0.913 ± 0.097	0.956 ± 0.039
UniProt Q8TE82	0.932 ± 0.083	0.925 ± 0.027	0.916 ± 0.049	0.904 ± 0.1	0.984 ± 0.12	0.966 ± 0.026
MYST3 (UniProt Q92794)	0.98 ± 0.084	1.07 ± 0.021	1.05 ± 0.12	0.992 ± 0.12	0.959 ± 0.043	1.02 ± 0.039
COPS5 (UniProt Q92905)	0.995 ± 0.053	1.01 ± 0.02	0.967 ± 0.024	0.962 ± 0.037	0.949 ± 0.012	0.98 ± 0.028

Just NP40-soluble protein abundance (concentration: 8mM), NP40-soluble protein abundance (concentration: 1mM) and NP40-soluble protein abundance (concentration: 2mM) (3 entries from above):
Target	NP40-soluble protein abundance (concentration: 8mM)	NP40-soluble protein abundance (concentration: 1mM)	NP40-soluble protein abundance (concentration: 2mM)
UniProt Q8WUQ7 and related entries	1.14 ± 0.054	0.9496 ± 0.0053	0.98 ± 0.016
UniProt Q8TCF1 and related entries	0.893 ± 0.048	0.939 ± 0.072	0.959 ± 0.057
HDAC2 (UniProt Q92769)	1.04 ± 0.056	1.03 ± 0.014	1.01 ± 0.026
